# Laboratory results reported in PubChem BioAssay AID624297 (National Center for Advancing Translational Sciences (NCATS), 2012).
# Screen size: about 340,000 compounds; about 6,200 (1.8%) were called active. The shares of active, inactive and inconclusive entries below differ from those in the screen. Calls follow the shape of the dose curve; as a rule, active = well fitted activation curve with a large enough effect; inconclusive = small, poorly fitted or top-dose-only effect; inactive = no such curve, though single readings can be large or run the other way. A potency beside an inconclusive call is a rough fit, not a confirmed value.
# Assay: A quantitative high throughput screen for small molecules that induce DNA re-replication in SW480 colon adenocarcinoma cells. Also: nearly all actives have a fitted effect of over 55% in size. As to re-replication activation: % of control where 0% means no effect.
# Conditions: Hoechst DNA content imaging, 48 h; re-replication activation: at 46.1 µM (top of the series) unless noted
# Method in brief: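 Image-based read-out: total Hoechst fluorescence of nuclei (405 nm excitation, 500-530 nm emission), with hits raising the fraction of high-intensity nuclei. SW480 colon cells incubated 48 hr with compounds at 37 C.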
# Potency is read from the fitted curve at half-maximal effect.
SMILES,Potency,re-replication activation
O=C(NCCc1ccccc1)c1ccc(-c2ccc(F)cc2)o1,"inconclusive: 16.4 µM [activator, partial curve, poor fit]",–
CCCCc1c(C)c(C#N)c2nc3ccccc3n2c1NCCN(C)C,"inconclusive: 29.1 µM [activator, single point]",–
CC(=O)Nc1ccc(NC(=O)C(C)OC(=O)c2oc3ccccc3c2C)cc1 (centres undefined),"inconclusive: 14.6 µM [activator, single point]",–
O=C(Cn1ccc(NC(=O)OCc2ccccc2)nc1=O)NCCCN1CCCC1=O,–,inactive: -5.87%
O=C(O)Cc1cn(-c2ccccc2)nc1-c1ccccc1,"inconclusive: 0.82 µM [activator, single point]",–
O=C(CSC1=NS(=O)(=O)c2cc(F)ccc2N1)NCc1ccccc1Cl,–,inactive: -5.23%
O=C(CCc1ccccc1O)N/N=C/c1ccc(Sc2cccc3cccnc23)o1,"inconclusive: 29.1 µM [activator, single point]",–
COc1ccc(/C=N/NC(=O)c2ccc3ccccc3c2)cc1OS(=O)(=O)c1ccc(NC(C)=O)cc1,–,inactive: -17.1%
O=C(Oc1cccc2cccnc12)c1cccc([N+](=O)[O-])c1,"inconclusive: 29.1 µM [activator, single point]",–
CCCN1C/C(=C/c2ccc3c(c2)OCO3)C(=O)/C(=C/c2ccc3c(c2)OCO3)C1,active: 4.61 µM,–
COc1cc(OC)c(C(=O)OCC(=O)N2CC(=O)Nc3ccccc32)cc1OC,"inconclusive: 20.6 µM [activator, single point]",–
O=C(NCC(c1cccs1)N1CCOCC1)c1cn(-c2ccccc2)nc1-c1ccccc1 (centres undefined),–,inactive: -8.21%
Cn1c(C(=O)OC(C(=O)NCc2ccco2)c2ccncc2)cc2sccc21 (centres undefined),–,inactive: 10.2%
CCOc1ccccc1Nc1nc(-c2sc(C)nc2C)cs1,"inconclusive: 29.1 µM [activator, single point]",–
Cc1ccc(NS(=O)(=O)c2ccc(C(=O)NCc3ccncc3)cc2)cc1,–,inactive: 1.29%
O=C(Nc1cccnc1)c1ccc([N+](=O)[O-])s1,"inconclusive: 5.17 µM [activator, single point]",–
NS(=O)(=O)c1cccc(NC(=O)COC(=O)CCC(=O)c2cccs2)c1,–,inactive: -9.35%
Cc1ccc(-n2c(O)c(C=NCc3ccccn3)c3ccccc3c2=O)cc1C,"inconclusive: 29.1 µM [activator, single point]",–
Oc1ccc(/C=N/Nc2ncnc3c2ncn3Cc2ccccc2)cc1O,"inconclusive: 18.4 µM [activator, partial curve, poor fit]",–
Fc1cccc(Cl)c1CNc1ccc(N2CCCC2)cc1,"inconclusive: 16.4 µM [activator, single point]",–
Cc1nn(C)c(C(=O)Sc2cccc(Cl)c2)c1[N+](=O)[O-],"inconclusive: 25.9 µM [activator, single point]",–
CCOC(=O)CCCn1ccc2cc(S(=O)(=O)N3CCCC3)ccc21,"inconclusive: 10.3 µM [activator, partial curve, poor fit]",–
COc1ccc(-n2c(=O)[nH]c3cc(C(=O)NCCc4ccc(Cl)cc4)ccc3c2=O)cc1OC,"inconclusive: 13 µM [activator, partial curve, poor fit]",–

SMILES,Potency,re-replication activation
O=C(N/N=C\C=C\c1ccc2c(c1)OCO2)c1cccnc1,"inconclusive: 29.1 µM [activator, single point]",–
Cc1sc2nc(CN(Cc3cccs3)C(=O)C3CC3)[nH]c(=O)c2c1C,–,inactive: -8.16%
CCOC(=O)C1=C(C)NC(C)=C(C(=O)OCC)C1C(=O)OCC(=O)NCc1ccco1,–,inactive: -6.59%
CCCc1ccc(Oc2cn[nH]c2-c2ccc(O)c(C)c2O)cc1,–,inactive: -0.694%
O=C1C(C=Nc2ccccc2O)=C(O)c2ccccc21,"inconclusive: 5.8 µM [activator, full curve]",–
CC(C)(CNC(=O)c1cccs1)CNC(=O)c1cccs1,"inconclusive: 0.146 µM [activator, full curve, poor fit]",–
O=C(Nc1ccccc1N1CCOCC1)c1ccc([N+](=O)[O-])o1,"inconclusive: 20.6 µM [activator, single point]",–
CC1(C)CC(=O)C2=C(C1)NC1=C(C(=O)c3ccccc31)C2c1cc([N+](=O)[O-])ccc1O (centres undefined),"inconclusive: 29.1 µM [activator, single point]",–
CC(=O)N1CCCc2ccccc21,"inconclusive: 18.4 µM [activator, single point]",–
COc1ccc(CN([C@H](C)CO)S(=O)(=O)N(Cc2ccccc2)[C@H](CO)C(C)C)cc1,–,inactive: -15.4%
CCOc1cc(N2CCOCC2)c(OCC)cc1NC(=O)c1cc(S(=O)(=O)N2CCOCC2)ccc1F,"inconclusive: 20.6 µM [activator, single point]",–
Cc1ccc(NC(=O)Cn2nnc(C(=O)NCc3ccc(Cl)cc3)c2N)cc1F,–,inactive: 0.93%
O=C(NCCCn1ccnc1)c1ccc(COc2ccccc2)o1,–,inactive: -3.07%
CCOc1ccc(-c2nc(CSCC(=O)NCCCN3CCCC3=O)c(C)o2)cc1,"inconclusive: 29.1 µM [activator, single point]",–
Cc1ccc(-c2nnc(SCC(=O)N3CC(C)CC(C)C3)o2)cc1C (centres undefined),–,inactive: -4.53%
CC(=O)Nc1ccc(S(=O)(=O)N2CCSCC2)cc1,"inconclusive: 23.1 µM [activator, single point]",–
CCCCN(CCCNC(=O)C1CCN(C(=O)c2cc3sccc3n2C)CC1)Cc1ccccc1,"inconclusive: 25.9 µM [activator, single point]",–
Cc1cc(NC(=O)CSc2nc3c([nH]c4ccccc43)c(=O)n2-c2ccccc2F)no1,–,inactive: 2.7%
CCOC(=O)/C=C1\CN(Cc2cc(OC)c(OC)c(OC)c2)S(=O)(=O)c2ccc(C(F)(F)F)cc21,"inconclusive: 7.31 µM [activator, partial curve, poor fit]",–
CC1CC2(CCCCC2)Nc2ccc3ccccc3c21 (centres undefined),"inconclusive: 32.6 µM [activator, partial curve, poor fit]",–
Cc1cc(N/N=C/c2ccccc2O)nc(-c2ccccc2O)n1,–,inactive: -5.84%
CCC1=Nc2cc(C(=O)NCC3CCCO3)ccc2Sc2ccc(Cl)cc21 (centres undefined),"inconclusive: 20.6 µM [activator, single point]",–
O=C(Nc1cccc2ccccc12)c1cc2c(cc1Br)OCO2,–,inactive: 2.02%

SMILES,Potency,re-replication activation
Cc1cccnc1NC(=S)NCc1ccco1,–,inactive: -1.49%
CCOc1ccc2[nH]c3c(NCCc4ccc(OC)c(OC)c4)ncnc3c2c1,"inconclusive: 29.1 µM [activator, single point]",–
COC(=O)[C@@]1(Cc2ccc(OC)cc2)[C@H]2c3cc(C(=O)N(C)C)n(CCc4ccc(OC)c(Br)c4)c3C[C@H]2CN1C(=O)c1ccccc1,"inconclusive: 16.4 µM [activator, partial curve, poor fit]",–
COc1cccc(NC(=O)CN(C)C(=O)c2ccc(S(=O)(=O)Nc3ccccc3C)cc2)c1,–,inactive: -23.6%
CCOCCCn1c(=NC(C)=O)c(C#N)cc2c(=O)n3ccccc3nc21,active: 7.31 µM,–
CCOc1ccc(N(Cc2ccc(OC)c(OC)c2)C(=O)c2ccco2)cc1,–,inactive: -4.51%
O=C(c1ccccc1)N1N=C(c2ccccc2)CC1c1ccccc1O (centres undefined),"inconclusive: 11.6 µM [activator, single point]",–
Cc1ccc(C2=NCCn3c2c2ccc([N+](=O)[O-])cc2[n+]3[O-])cc1,"inconclusive: 29.1 µM [activator, single point]",–
COc1ccc(NCc2nnc(SCC(=O)c3ccc(OC)cc3)n2C)cc1,"inconclusive: 20.6 µM [activator, single point]",–
Cc1cc(/C=C2\Cc3ccccc3C2=O)c(C)n1-c1ccccc1,"inconclusive: 18.4 µM [activator, single point]",–
Cc1cccc(N2CCN(C(=O)C3CCC(CNS(=O)(=O)c4cccs4)CC3)CC2)c1C (centres undefined),"inconclusive: 14.6 µM [activator, single point]",–
CCc1cccc(Nc2c([N+](=O)[O-])cc(C(=O)N3CC(=O)Nc4ccccc43)cc2[N+](=O)[O-])c1,"inconclusive: 23.1 µM [activator, single point]",–
CCc1ccc(CNC(=O)C2CCN(c3nnc(C)c4c(C)n(-c5ccc(C)cc5)nc34)CC2)cc1,"inconclusive: 3.26 µM [activator, single point]",–
CCCCCN(C(=O)CCC(=O)OCCOc1ccccc1)c1c(N)n(CCCC)c(=O)[nH]c1=O,–,inactive: 3%
Cc1ccc2ncccc2c1NC(=S)NC(=O)c1ccccc1,–,inactive: -0.159%
COc1ccc(OC)c2[nH]c(=O)c(CCNC(=O)COc3ccccc3)cc12,–,inactive: -6.05%
NC1=NC(c2ccc(F)cc2)n2c(nc3ccccc32)N1 (centres undefined),"inconclusive: 29.1 µM [activator, partial curve, poor fit]",–
CCOc1ccc(NC(=S)NNc2ccnc3cc(Cl)ccc23)cc1,"inconclusive: 16.4 µM [activator, single point]",–
COc1ccc(OC)c(S(=O)(=O)N(C)CC(=O)O)c1,–,inactive: -1.37%
Cc1ccc(/C=N/NC(=O)c2ccc(N(C)S(=O)(=O)c3ccccc3)cc2)cc1,"inconclusive: 29.1 µM [activator, single point]",–
O=S(=O)(NCCCN1CCOCC1)c1ccc(Cl)s1,"inconclusive: 29.1 µM [activator, single point]",–
O=C(N/N=C/c1ccc(-c2cccc([N+](=O)[O-])c2)o1)[C@H]1C[C@@H]1c1ccccc1,–,inactive: -4.44%
O=C(Cn1cnc2c(oc3nc4c(cc32)CCCC4)c1=O)Nc1ccccc1,"inconclusive: 18.4 µM [activator, single point]",–

# Looked up by structure from above:
SMILES,Potency,re-replication activation
O=C(N/N=C/c1ccc(-c2cccc([N+](=O)[O-])c2)o1)[C@H]1C[C@@H]1c1ccccc1,–,inactive: -4.44%
COC(=O)[C@@]1(Cc2ccc(OC)cc2)[C@H]2c3cc(C(=O)N(C)C)n(CCc4ccc(OC)c(Br)c4)c3C[C@H]2CN1C(=O)c1ccccc1,"inconclusive: 16.4 µM [activator, partial curve, poor fit]",–
CCc1ccc(CNC(=O)C2CCN(c3nnc(C)c4c(C)n(-c5ccc(C)cc5)nc34)CC2)cc1,"inconclusive: 3.26 µM [activator, single point]",–
